Experimental data reported in PubChem BioAssay AID248 (DTP/NCI, 2004).
The list does not hold the whole screen: it is rich in T/C values a quarter to a half above the control, in often repeated tests (any T/C) and in doses without a T/C. Further doses and runs are listed elsewhere. T/C: endpoint of the treated group in % of that of the vehicle group. Some entries give survivors of the animals treated and no T/C: the source holds a T/C of zero for them, seemingly a mark for toxic or unscored doses. Some survivor counts are full or nearly so, which does not show that the dose was tolerated: the source hardly ever lists a survival T/C far under the control, and the zero likely stands for such cases as well. Survivors were counted at the toxicity check, usually on the fifth day, unless a day is given; later deaths do not show. Schedule codes are those of the source, read here as Q, the interval in days (D) or hours (H), X, the number of doses. Some schedule codes hold Z or #, which are not explained here. Some molecules as drawn cover several salts, stereoisomers or complexes of the source; a dose is that of the sample tested. For survival time, the PubChem record calls one and a half times the control and up active, and a quarter to a half above the control has no call in these data; cut-offs in other NCI protocols can differ. Some T/C values are followed by the survivors on the day toxicity was checked, most often the fifth; where none is given, no animal had died by that day.

System: L1210 leukemia ip in BDF1 mice, survival T/C
Assay: NCI In Vivo Anticancer Drug Screen. Data for tumor model L1210 Leukemia (intraperitoneal) in B6D2F1 (BDF1) mice
Conditions: T/C endpoint: mean survival time, higher T/C = longer survival
[1] = dose: 75.0 mg/kg/injection, schedule: Q01DX001 (ip), vehicle: other
[2] = dose: 300.0 mg/kg/injection, schedule: Q01DX001 (ip), vehicle: other
[3] = dose: 400.0 mg/kg/injection, schedule: Q04DX003 (ip), vehicle: saline with Tween-80
[4] = dose: 400.0 mg/kg/injection, schedule: Q01DX009 (ip), vehicle: Klucel (hydroxypropylcellulose) (HPC)
[5] = dose: 400.0 mg/kg/injection, schedule: Q04DX003 (ip), vehicle: saline

CCOC(=O)c1ccc(NC(=O)N(CCCl)N=O)cc1
T/C (dose: 3.0 mg/kg/injection, schedule: Q01DX001 (ip), vehicle: carboxymethylcellulose (CMC)): 126 % of control | T/C (dose: 4.0 mg/kg/injection, schedule: Q01DX001 (ip), vehicle: carboxymethylcellulose (CMC)): 134 % of control | T/C (dose: 6.0 mg/kg/injection, schedule: Q01DX001 (ip), vehicle: carboxymethylcellulose (CMC)): 146 % of control | survivor count (dose: 37.5 mg/kg/injection, schedule: Q01DX001 (ip), vehicle: carboxymethylcellulose (CMC)): 2 of 6 | survivor count (dose: 50.0 mg/kg/injection, schedule: Q01DX001 (ip), vehicle: carboxymethylcellulose (CMC)): 6 of 6 | survivor count (dose: 100.0 mg/kg/injection, schedule: Q01DX001 (ip), vehicle: carboxymethylcellulose (CMC)): 3 of 6 | survivor count (dose: 200.0 mg/kg/injection, schedule: Q01DX001 (ip), vehicle: carboxymethylcellulose (CMC)): 4 of 6 | survivor count (dose: 300.0 mg/kg/injection, schedule: Q01DX001 (ip), vehicle: carboxymethylcellulose (CMC)): 0 of 6 | survivor count (dose: 400.0 mg/kg/injection, schedule: Q01DX001 (ip), vehicle: carboxymethylcellulose (CMC)): 0 of 6 | survivor count (dose: 500.0 mg/kg/injection, schedule: Q01DX001 (ip), vehicle: carboxymethylcellulose (CMC)): 0 of 6 | survivor count (dose: 600.0 mg/kg/injection, schedule: Q01DX001 (ip), vehicle: carboxymethylcellulose (CMC)): 0 of 6 | survivor count (dose: 800.0 mg/kg/injection, schedule: Q01DX001 (ip), vehicle: carboxymethylcellulose (CMC)): 0 of 6 | survivor count (dose: 1000.0 mg/kg/injection, schedule: Q01DX001 (ip), vehicle: carboxymethylcellulose (CMC)): 0 of 6

COC1CCCCC1SCSC1CCCCC1OC (stereo not drawn)
survivor count (dose: 200.0 mg/kg/injection, schedule: Q01DX009 (ip), vehicle: saline with Tween-80): 6 of 6

OC(CN1CCCCC1)c1ccc2oc3ccccc3c2c1 (stereo not drawn)
survivor count (dose: 400.0 mg/kg/injection, schedule: Q04DX002 (ip), vehicle: Klucel (hydroxypropylcellulose) (HPC)): 0 of 3

C=C(C)C(Br)=C(C)C
survivor count (dose: 200.0 mg/kg/injection, schedule: Q01DX001 (ip), vehicle: DMSO): 3 of 6 | survivor count (dose: 400.0 mg/kg/injection, schedule: Q01DX001 (ip), vehicle: DMSO): 2 of 6

OC(CI)C(O)CI (stereo not drawn)
survivor count [1]: 6 of 6 | survivor count [2]: 0 of 6

COc1ccc(-c2nc(N)ncc2CSC)cc1
survivor count [3]: 3 of 3

CC(C)NCC(O)c1ccc(O)c(O)c1 (stereo not drawn)
T/C (dose: 200.0 mg/kg/injection, schedule: Q01DX009 (ip), vehicle: Klucel (hydroxypropylcellulose) (HPC)): 133 % of control | T/C [4]: 127 % of control [4 of 6 alive] | survivor count [4]: 3 of 6 | survivor count (dose: 400.0 mg/kg/injection, schedule: Q01DX009 (ip), vehicle: saline): 2 of 5

O=C1C=C(Cl)C(=O)c2ccccc21
survivor count (dose: 18.75 mg/kg/injection, schedule: Q01DX001 (ip), vehicle: steroid suspending solution): 3 of 6 | survivor count (dose: 37.5 mg/kg/injection, schedule: Q01DX001 (ip), vehicle: steroid suspending solution): 0 of 6

C=CCc1ccc(OCCOCCN(CC=C(C)C)CC=C(C)C)c(OC)c1
survivor count (dose: 100.0 mg/kg/injection, schedule: Q04DX003 (ip), vehicle: Klucel (hydroxypropylcellulose) (HPC)): 3 of 6 | survivor count (dose: 200.0 mg/kg/injection, schedule: Q04DX003 (ip), vehicle: Klucel (hydroxypropylcellulose) (HPC)): 0 of 6 | survivor count (dose: 400.0 mg/kg/injection, schedule: Q04DX003 (ip), vehicle: Klucel (hydroxypropylcellulose) (HPC)): 0 of 6

CN(C)C1CCC2C3CC=C4CC(OC=O)CCC4(C)C3CCC21C (stereo not drawn)
survivor count [1]: 1 of 6 | survivor count (dose: 150.0 mg/kg/injection, schedule: Q01DX001 (ip), vehicle: other): 0 of 6 | survivor count [2]: 0 of 6

O=C(Nc1ccc(NC2=NCCN2)cc1)c1ccc(C(=O)Nc2ccc(NC3=NCCN3)cc2)c([N+](=O)[O-])c1
T/C (dose: 7.5 mg/kg/injection, schedule: Q01DX Z (ip), vehicle: saline): 148 % of control | survivor count (dose: 30.0 mg/kg/injection, schedule: Q01DX Z (ip), vehicle: saline): 1 of 6 | survivor count (dose: 60.0 mg/kg/injection, schedule: Q01DX Z (ip), vehicle: saline): 0 of 6 | survivor count (dose: 120.0 mg/kg/injection, schedule: Q01DX Z (ip), vehicle: saline): 0 of 6

CC1=C(CO)C(=O)O[C@@H]([C@@H](C)[C@H]2CC[C@H]3[C@@H]4C[C@H]5O[C@]56[C@@H](O)C=CC(=O)[C@]6(C)[C@H]4CC[C@]23C)C1
survivor count (dose: 40.0 mg/kg/injection, schedule: Q01DX Z (ip), vehicle: carboxymethylcellulose (CMC)): 2 of 4

CCOC(=O)Nc1cc(NC(c2ccccc2)c2ccccc2)c2[nH]cnc2n1
T/C (dose: 20.0 mg/kg/injection, schedule: Q01DX009 (ip), vehicle: other): 135 % of control [5 of 6 alive] | survivor count (dose: 30.0 mg/kg/injection, schedule: Q01DX009 (ip), vehicle: other): 0 of 6 | T/C (dose: 40.0 mg/kg/injection, schedule: Q01DX001 (ip), vehicle: other): 148 % of control | survivor count (dose: 45.0 mg/kg/injection, schedule: Q01DX009 (ip), vehicle: other): 0 of 6 | survivor count (dose: 67.0 mg/kg/injection, schedule: Q01DX009 (ip), vehicle: other): 0 of 6 | survivor count (dose: 70.0 mg/kg/injection, schedule: Q01DX001 (ip), vehicle: other): 2 of 6 | survivor count (dose: 80.0 mg/kg/injection, schedule: Q01DX001 (ip), vehicle: other): 0 of 6 | T/C (dose: 80.0 mg/kg/injection, schedule: Q01DX001 (ip), vehicle: steroid suspending solution): 132 % of control | survivor count (dose: 200.0 mg/kg/injection, schedule: Q01DX001 (ip), vehicle: other): 0 of 6 | survivor count (dose: 400.0 mg/kg/injection, schedule: Q01DX001 (ip), vehicle: other): 0 of 6

NCc1ccc[n+]([O-])c1
survivor count (dose: 100.0 mg/kg/injection, schedule: Q04DX002 (ip), vehicle: saline with Tween-80): 3 of 3

O=C1NCC2C3CCC(O3)C12 (stereo not drawn)
T/C (dose: 200.0 mg/kg/injection, schedule: Q04DX002 (ip), vehicle: saline): 132 % of control [2 of 3 alive]

CC(C)(C)NCCC(=O)c1ccccc1
survivor count (dose: 100.0 mg/kg/injection, schedule: Q04DX003 (ip), vehicle: saline): 1 of 6 | survivor count (dose: 200.0 mg/kg/injection, schedule: Q04DX003 (ip), vehicle: saline): 0 of 6 | survivor count [5]: 0 of 6

CCCCN(CCCC)N=Nc1c[nH]c(=O)[nH]c1=O
survivor count (dose: 32.0 mg/kg/injection, schedule: Q01DX Z (ip), vehicle: carboxymethylcellulose (CMC)): 6 of 6 | survivor count (dose: 64.0 mg/kg/injection, schedule: Q01DX Z (ip), vehicle: carboxymethylcellulose (CMC)): 0 of 6

CC(=O)C(Cl)C(O)(C(F)(F)F)C(F)(F)F (stereo not drawn)
survivor count [3]: 2 of 6

CC(C)c1cccc(OC(=O)N(C)[Si](C)(C)C)c1
survivor count (dose: 80.0 mg/kg/injection, schedule: Q01DX001 (ip), vehicle: saline): 0 of 6

CCN(CC)Cc1c(C)[nH]c2ccc(N(C)C)cc2c1=O
survivor count [5]: 0 of 6

Cc1cccc(C(=O)NO)c1O
survivor count (dose: 300.0 mg/kg/injection, schedule: Q01DX001 (ip), vehicle: saline): 0 of 6
